The values below come from article PMC5703960.

Protein sequences, listed by entry. Tags and fused reporters are not part of them.
UniProt O60260: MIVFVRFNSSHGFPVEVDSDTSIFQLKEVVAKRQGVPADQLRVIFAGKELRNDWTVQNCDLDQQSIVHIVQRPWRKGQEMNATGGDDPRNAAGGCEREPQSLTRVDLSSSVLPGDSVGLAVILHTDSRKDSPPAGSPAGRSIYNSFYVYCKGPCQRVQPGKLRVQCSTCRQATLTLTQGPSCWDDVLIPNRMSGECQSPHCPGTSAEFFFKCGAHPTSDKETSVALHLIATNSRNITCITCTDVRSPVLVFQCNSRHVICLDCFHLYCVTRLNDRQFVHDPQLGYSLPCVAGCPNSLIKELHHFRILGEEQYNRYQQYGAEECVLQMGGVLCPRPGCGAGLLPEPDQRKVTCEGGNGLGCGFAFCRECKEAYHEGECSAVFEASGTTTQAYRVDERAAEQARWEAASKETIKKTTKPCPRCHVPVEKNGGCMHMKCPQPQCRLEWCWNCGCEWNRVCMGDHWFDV
UniProt P55036: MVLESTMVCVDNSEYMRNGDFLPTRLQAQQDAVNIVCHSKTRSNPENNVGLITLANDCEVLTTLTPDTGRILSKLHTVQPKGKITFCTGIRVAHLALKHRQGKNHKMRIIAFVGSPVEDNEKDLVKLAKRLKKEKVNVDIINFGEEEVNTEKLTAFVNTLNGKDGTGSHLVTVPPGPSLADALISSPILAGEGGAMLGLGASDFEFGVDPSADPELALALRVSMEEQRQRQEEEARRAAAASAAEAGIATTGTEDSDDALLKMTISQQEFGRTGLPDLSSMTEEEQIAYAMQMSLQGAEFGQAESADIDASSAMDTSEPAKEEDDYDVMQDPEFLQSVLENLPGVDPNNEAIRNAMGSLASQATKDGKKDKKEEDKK

For this experiment, the target named is Myc-tagged Parkin (pLPCX-Myc-Parkin), wild type (human) (UniProt O60260). The experiment can be described thus: affinity purification with mass spectrometry; MCF7 cells transduced with pLPCX-Myc-Parkin or empty vector, MG132 (10 μM) 8 h; two sequential rounds of IP (anti-Myc beads, elution with Myc peptide, then anti-Parkin antibody), LC-MS/MS.

Results are given in words; binding and its absence hold for the method and conditions named. Binding seen in cells or lysates may run through a third protein. A yes stands for co-enrichment or nearness to the bait. Other partners may have been found.

For the substance Rpn10 (from UniProt P55036 1-377), the binding result is recorded as “binds”.
